Data as given in PubChem BioAssay AID1259308 (NCATS, 2017).

Purpose: 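Candidate targets for better recombinant protein yield in mammalian cells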 (primary screen)
System: human HEK293 embryonic kidney cells stably expressing firefly luciferase (HEK-CMV-Luc2-Hygro)
Reagent: single siRNA against human genes, 0.8 pmol siRNA per well
Duration: 72 h
Measured: 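Reporter luminescence and viable-cell signal on separate replicate plates, given as percent of non-targeting control and median/MAD z-scores, plus per-cell luciferase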
Reading the numbers: total luciferase, z-score and total luciferase, % of control: higher = more reporter protein produced; luciferase per cell, z-score: higher = more reporter output per viable cell; viable cells, % of control: higher = more viable cells
Active means: 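An siRNA counts as active if its total luciferase robust z-score exceeds 3; genes with two or more such siRNAs out of three were retested with fresh siRNAs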
Calls: active = raised luciferase; inactive = no rise
Here is a random part of about 59,000 reagents. Over the whole deposit, about 1,510 (2.6%) are marked active. 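Calls use total luciferase alone and ignore viability, so some active siRNAs may act by altering cell number.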 The numbers tell different reagents against one gene apart.

Gene	reagent	total luciferase, z-score	total luciferase, % of control	luciferase per cell, z-score	viable cells, % of control	Outcome
RNF43 (GeneID 54894)	1	0.808	98	1.82	67.7	inactive
RNF43 (GeneID 54894)	2	-2.23	37.5	-1.65	64.6	inactive
RNF43 (GeneID 54894)	3	-0.889	64.2	-1.02	93.8	inactive
RIMBP3 (GeneID 85376)	1	0.694	95.7	0.0855	105	inactive
RIMBP3 (GeneID 85376)	2	1.36	109	1.23	88.2	inactive
RIMBP3 (GeneID 85376)	3	0.501	91.8	-0.507	117	inactive
LAIR2 (GeneID 3904)	1	-0.345	75	-0.937	107	inactive
LAIR2 (GeneID 3904)	2	2.25	127	1.1	106	inactive
LAIR2 (GeneID 3904)	3	-0.903	63.9	-1.46	105	inactive
PEX12 (GeneID 5193)	1	-0.455	72.8	-0.48	92.4	inactive
PEX12 (GeneID 5193)	2	-0.457	72.8	-0.0761	83	inactive
PEX12 (GeneID 5193)	3	1.76	117	2.89	60.9	inactive
CCDC162P (GeneID 221262)	1	0.331	88.5	0.897	78.1	inactive
CCDC162P (GeneID 221262)	2	0.135	84.6	1.05	71.7	inactive
CCDC162P (GeneID 221262)	3	-0.75	67	-0.256	80.1	inactive
CCDC162P (GeneID 221262)	4	2.17	125	3.08	62.2	inactive
CCDC162P (GeneID 221262)	5	-0.0189	81.5	-0.0672	92.7	inactive
CCDC162P (GeneID 221262)	6	-0.653	68.9	-1.03	101	inactive
DISP2 (GeneID 85455)	1	-0.692	68.1	-0.752	92.8	inactive
DISP2 (GeneID 85455)	2	-0.557	70.8	-0.221	83.9	inactive
DISP2 (GeneID 85455)	3	-1.29	56.2	-0.707	75.7	inactive
RALBP1 (GeneID 10928)	1	1.33	108	2.21	67.7	inactive
RALBP1 (GeneID 10928)	2	0.795	97.7	0.655	91.9	inactive
RALBP1 (GeneID 10928)	3	0.922	100	0.828	90.1	inactive
CYP39A1 (GeneID 51302)	1	-1	62	-0.969	89.4	inactive
CYP39A1 (GeneID 51302)	2	2.75	137	2.59	77.3	inactive
CYP39A1 (GeneID 51302)	3	0.148	84.8	0.676	79.3	inactive
DELE1 (GeneID 9812)	1	0.756	96.9	2.1	62.4	inactive
DELE1 (GeneID 9812)	2	3.27	147	3.17	71.2	active
DELE1 (GeneID 9812)	3	1.27	107	1.6	78.7	inactive
CDK15 (GeneID 65061)	1	-1.41	53.8	0.279	55.8	inactive
CDK15 (GeneID 65061)	2	0.602	93.9	-0.152	109	inactive
CDK15 (GeneID 65061)	3	0.879	99.4	1.11	82.9	inactive
SLC35D2 (GeneID 11046)	1	0.483	91.5	0.525	89	inactive
SLC35D2 (GeneID 11046)	2	0.0632	83.1	-0.0531	94.2	inactive
SLC35D2 (GeneID 11046)	3	2.92	140	1.75	98.7	inactive
TTLL10 (GeneID 254173)	1	-0.0998	79.9	0.351	81.4	inactive
TTLL10 (GeneID 254173)	2	-1.15	59.1	-0.543	76.2	inactive
TTLL10 (GeneID 254173)	3	1.75	117	2.55	66.7	inactive
